From PMC13187458 come the findings set out here.

By UniProt entry, the sequences of proteins in these tests, tags left out.
UniProt Q13263: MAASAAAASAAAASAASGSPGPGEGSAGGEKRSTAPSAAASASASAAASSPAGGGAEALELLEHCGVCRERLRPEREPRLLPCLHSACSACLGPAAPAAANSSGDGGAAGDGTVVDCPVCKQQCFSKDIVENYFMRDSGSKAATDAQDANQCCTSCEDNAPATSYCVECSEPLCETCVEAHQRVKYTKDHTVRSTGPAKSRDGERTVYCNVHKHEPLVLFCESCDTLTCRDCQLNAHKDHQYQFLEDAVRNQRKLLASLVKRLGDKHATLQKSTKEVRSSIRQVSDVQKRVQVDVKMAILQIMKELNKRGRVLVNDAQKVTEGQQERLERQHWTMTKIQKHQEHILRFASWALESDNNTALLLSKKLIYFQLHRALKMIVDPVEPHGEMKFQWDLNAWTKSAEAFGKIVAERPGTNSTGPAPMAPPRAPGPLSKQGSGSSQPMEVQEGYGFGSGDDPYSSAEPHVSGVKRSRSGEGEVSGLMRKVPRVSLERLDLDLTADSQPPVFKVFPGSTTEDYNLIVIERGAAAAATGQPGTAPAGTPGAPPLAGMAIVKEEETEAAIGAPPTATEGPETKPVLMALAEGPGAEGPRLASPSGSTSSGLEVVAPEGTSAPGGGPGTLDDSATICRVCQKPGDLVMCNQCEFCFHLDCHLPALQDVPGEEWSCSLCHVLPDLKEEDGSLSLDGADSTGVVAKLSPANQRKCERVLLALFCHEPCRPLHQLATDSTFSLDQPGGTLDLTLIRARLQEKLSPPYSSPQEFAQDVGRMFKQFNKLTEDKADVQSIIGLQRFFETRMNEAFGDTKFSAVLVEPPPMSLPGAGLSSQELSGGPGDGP

For one experiment, the target named is T1, Flag-tagged TR4 (UniProt P49116).
T1 sequence: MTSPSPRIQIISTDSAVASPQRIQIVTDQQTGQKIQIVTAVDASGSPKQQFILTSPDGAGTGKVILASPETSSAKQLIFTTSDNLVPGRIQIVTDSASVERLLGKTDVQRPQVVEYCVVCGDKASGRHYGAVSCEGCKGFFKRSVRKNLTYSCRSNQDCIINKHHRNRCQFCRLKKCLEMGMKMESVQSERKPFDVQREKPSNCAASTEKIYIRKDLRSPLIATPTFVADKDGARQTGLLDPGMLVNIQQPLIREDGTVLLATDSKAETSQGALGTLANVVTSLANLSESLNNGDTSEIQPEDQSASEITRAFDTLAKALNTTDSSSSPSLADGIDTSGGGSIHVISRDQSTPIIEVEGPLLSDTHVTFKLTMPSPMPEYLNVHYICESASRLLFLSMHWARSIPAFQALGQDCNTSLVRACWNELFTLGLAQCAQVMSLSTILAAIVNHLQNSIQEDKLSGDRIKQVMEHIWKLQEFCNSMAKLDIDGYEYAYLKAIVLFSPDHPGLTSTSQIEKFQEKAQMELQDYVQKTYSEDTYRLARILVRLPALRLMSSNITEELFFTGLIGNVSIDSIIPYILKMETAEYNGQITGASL
Description: co-IP; lysates of WI38-VA13/2RA cells (2 × 10^7) transiently expressing Flag-tagged COUP-TF2 or TR4; NETN lysis buffer; anti-Flag agarose beads, 4 °C, 30 min; Western blot for endogenous TRIM28; also done after Benzonase treatment of the lysates. (In western blotting, separated proteins are transferred to a membrane and probed.)

In another experiment the target is T2, Flag-tagged COUP-TF2 (UniProt P24468).
T2 sequence: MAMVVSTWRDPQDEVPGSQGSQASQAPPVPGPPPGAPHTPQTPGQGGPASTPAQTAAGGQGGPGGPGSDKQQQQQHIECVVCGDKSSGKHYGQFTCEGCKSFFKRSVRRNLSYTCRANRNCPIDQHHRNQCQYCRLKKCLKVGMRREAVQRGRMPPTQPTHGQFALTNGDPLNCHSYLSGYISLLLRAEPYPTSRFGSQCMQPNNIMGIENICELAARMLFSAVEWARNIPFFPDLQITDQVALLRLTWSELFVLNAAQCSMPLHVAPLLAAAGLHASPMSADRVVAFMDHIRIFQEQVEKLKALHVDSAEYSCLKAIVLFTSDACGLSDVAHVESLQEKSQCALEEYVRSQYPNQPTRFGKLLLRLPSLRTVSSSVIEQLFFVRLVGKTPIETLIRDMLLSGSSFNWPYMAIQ
Described as above.

No constants are given. Whether binding was seen depends on the method and setting. Binding seen in cells or lysates may run through a third protein. Some entries that bind do so weakly or less than the wild type. Where a sequence is shown, tags or fusion partners need not be part of it.

With “TRIM28 (Tripartite motif-containing 28), endogenous (from UniProt Q13263 1-835)”, the binding result with Flag-tagged TR4 and with Flag-tagged COUP-TF2 was “binds” throughout.
